Experimental data: PubChem BioAssay AID602196 (INSERM, 2012)
Aim: 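Genes whose knock-down alters cisplatin killing of lung cancer cells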. System: human A549 lung cancer cells. Knock-down reagent: siRNA pair against human genes. Timing: 48 h transfection before cisplatin; time from cisplatin to read-out not stated. Treatment: cisplatin at a dose killing half of control-siRNA cells; exact dose and duration not given. Read-out: 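Shift in cisplatin death relative to control siRNA, from -50 (all cells die) to +50 (no cells die); siRNAs harmful on their own scored 0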. Reading the numbers: two-siRNA summed score (-2 to +2): higher = both siRNAs protect from cisplatin killing; -2 means both sensitise; mean protection from cisplatin (shift in death) and protection from cisplatin (shift in death), siRNA C and protection from cisplatin (shift in death), siRNA D: higher = protection from cisplatin killing. Call rule: 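siRNAs harmful alone (LDH or WST-1) get 0; others get +1 for less and -1 for more cisplatin killing; genes are active when the two siRNAs give the same sign, summing to ±2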. Meaning of the calls: active = both siRNAs shift cisplatin killing the same way; inactive = no consistent shift, or siRNA harmful alone.
Here is a random part of about 23,000 deposited reagents. In the full data, 455 (2%) got an active call. 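Active includes both protection and sensitisation; some change values fall well beyond the stated -50 to +50 range.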 Unmarked entries are inactive. Not given: the amount of reagent.

| gene | two-siRNA summed score (-2 to +2) | mean protection from cisplatin (shift in death) (%) | protection from cisplatin (shift in death), siRNA C (%) | protection from cisplatin (shift in death), siRNA D (%) |
| --- | --- | --- | --- | --- |
| FKBP5 (FKBP prolyl isomerase 5) | 0 | 3.5 | -28.9 | 35.9 |
| OR2W5 | 0 | 9.6 | 14.4 | 4.8 |
| ZFAND3 (zinc finger AN1-type containing 3) | 0 | 9 | 12.9 | 5.1 |
| LOC400940 | 1 | 11.9 | 2.2 | 21.7 |
| LOC400574 | 0 | 10.3 | 11.1 | 9.5 |
| ASH2L (ASH2 like, histone lysine methyltransferase complex subunit) | 0 | 0.8 | -6.9 | 8.6 |
| ANKRD9 (ankyrin repeat domain 9) | 0 | 12.3 | 8.3 | 16.4 |
| PRPF31 (pre-mRNA processing factor 31) | 0 | -23 | -11.1 | -34.8 |
| TAF6 (TATA-box binding protein associated factor 6) | 0 | -4.3 | -7.1 | -1.4 |
| LOC441836 | 0 | 9.5 | 4.6 | 14.4 |
| GRM8 (glutamate metabotropic receptor 8) | 0 | 13.5 | -8.6 | 35.6 |
| CCDC102B (coiled-coil domain containing 102B) | 0 | -0.5 | 10.2 | -11.2 |
| WEE2-AS1 (WEE2 antisense RNA 1) | 0 | 0.3 | -10.3 | 10.9 |
| LOC440009 | 0 | -1.3 | -3.3 | 0.7 |
| LOC441355 | 0 | 4.2 | 3.2 | 5.3 |
| CHCHD2 (coiled-coil-helix-coiled-coil-helix domain containing 2) | 0 | 6.1 | 6.9 | 5.2 |
| STAB1 (stabilin 1) | 0 | 0 | 6.4 | -6.4 |
| C12orf60 (chromosome 12 open reading frame 60) | 1 | 19.1 | 14.4 | 23.9 |
| SHOX (SHOX homeobox) | 0 | 4.6 | 7.6 | 1.6 |
| ACMSD (aminocarboxymuconate semialdehyde decarboxylase) | 0 | 7.5 | 9.4 | 5.7 |
| PNPLA3 | 1 | 15.8 | 10.2 | 21.5 |
| TSFM (Ts translation elongation factor, mitochondrial) | 0 | 6.6 | 3.2 | 9.9 |
| RUSC2 (RUN and SH3 domain containing 2) | 0 | 10.4 | 4.4 | 16.5 |
| CDC14A (cell division cycle 14A) | 0 | -3.7 | 0.8 | -8.1 |
| CHTF18 (chromosome transmission fidelity factor 18) | 0 | 9.7 | 19 | 0.4 |
| KDM5B (lysine demethylase 5B) | -1 | -13.5 | -7.2 | -19.8 |
| LOC390992 | 1 | 19.4 | 33.9 | 4.9 |
| NPC1 (NPC intracellular cholesterol transporter 1) | 0 | -2.7 | -5 | -0.4 |
| LOC440493 | 1 | 3.2 | -9.5 | 15.9 |
| CCDC8 (coiled-coil domain containing 8 subunit of 3M complex) | 0 | 5.8 | 18.3 | -6.7 |
| BLZF1 (basic leucine zipper nuclear factor 1) | 0 | -1.4 | 0.5 | -3.3 |
| LOC286408 | 1 | 14.7 | 20.8 | 8.7 |
| PHLPP1 (PH domain and leucine rich repeat protein phosphatase 1) | 1 | 14.9 | 12.3 | 17.5 |
| MOB4 (MOB family member 4, phocein) | 0 | 0.8 | 0.1 | 1.5 |
| LOC440760 | 0 | -3.1 | -4 | -2.2 |
| DSC2 (desmocollin 2) | 2 (active) | 17 | 18.4 | 15.6 |
| SLIT2 (slit guidance ligand 2) | 0 | 0.9 | 0.6 | 1.3 |
| EREG (epiregulin) | 0 | 2.1 | -0.5 | 4.7 |
| COX6B2 (cytochrome c oxidase subunit 6B2) | 0 | 1.9 | -2.6 | 6.4 |
| SYBU (syntabulin) | 0 | -1.2 | -2.1 | -0.3 |
| STX11 (syntaxin 11) | 0 | -5.2 | -5.8 | -4.6 |
| GTF2A1 (general transcription factor IIA subunit 1) | 1 | 14.2 | 24.6 | 3.8 |
| PLA2G4A (phospholipase A2 group IVA) | 1 | 10 | 20.2 | -0.2 |
| SEC23A (SEC23 homolog A, COPII component) | 2 (active) | 21.5 | 22.5 | 20.4 |
| LOC391353 | -1 | -11.1 | -6.3 | -15.9 |
| LOC166994 (retired record) | 1 | 9.8 | 5.5 | 14.2 |
| G6PD (glucose-6-phosphate dehydrogenase) | 0 | -3 | -8.4 | 2.3 |
| TMEM229B (transmembrane protein 229B) | 0 | 2.8 | 1.6 | 4.1 |
| GPRACR (GPR107 adjacent cis regulating lncRNA) | -1 | -3.5 | 11.2 | -18.2 |
| LOC388928 | 0 | 3.9 | -0.5 | 8.3 |
| C1QTNF7 (C1q and TNF related 7) | 0 | 5.1 | 5.6 | 4.6 |
| STARD3NL (STARD3 N-terminal like) | 0 | 10.9 | 32.2 | -10.4 |
| P4HA2 (prolyl 4-hydroxylase subunit alpha 2) | -1 | -20 | -37.8 | -2.2 |
| MAP3K3 (mitogen-activated protein kinase kinase kinase 3) | 0 | -0.4 | 2.7 | -3.5 |
| LHX1 (LIM homeobox 1) | 2 (active) | 23.7 | 24.5 | 22.9 |
| HLCS (holocarboxylase synthetase) | 0 | -13.3 | -25.1 | -1.4 |
| ADRB3 (adrenoceptor beta 3) | 0 | -1.3 | 1.9 | -4.6 |

Not a retest: an excerpt of the list.
| gene | two-siRNA summed score (-2 to +2) | mean protection from cisplatin (shift in death) (%) | protection from cisplatin (shift in death), siRNA C (%) | protection from cisplatin (shift in death), siRNA D (%) |
| --- | --- | --- | --- | --- |
| TAF6 (TATA-box binding protein associated factor 6) | 0 | -4.3 | -7.1 | -1.4 |
| LOC441836 | 0 | 9.5 | 4.6 | 14.4 |
| GRM8 (glutamate metabotropic receptor 8) | 0 | 13.5 | -8.6 | 35.6 |
| CCDC102B (coiled-coil domain containing 102B) | 0 | -0.5 | 10.2 | -11.2 |
| WEE2-AS1 (WEE2 antisense RNA 1) | 0 | 0.3 | -10.3 | 10.9 |
